For this assay, the target named is human Y4 receptor (human) (UniProt P0DQD5). The assay is described as follows: 125I-PYY displacement, COS-7 membranes.

Sequences of proteins named here, by UniProt entry; tags and fusion partners are left off. A change or cut given only in a name is not applied to a line headed by its entry. Residues count along the entry.
UniProt P0DQD5: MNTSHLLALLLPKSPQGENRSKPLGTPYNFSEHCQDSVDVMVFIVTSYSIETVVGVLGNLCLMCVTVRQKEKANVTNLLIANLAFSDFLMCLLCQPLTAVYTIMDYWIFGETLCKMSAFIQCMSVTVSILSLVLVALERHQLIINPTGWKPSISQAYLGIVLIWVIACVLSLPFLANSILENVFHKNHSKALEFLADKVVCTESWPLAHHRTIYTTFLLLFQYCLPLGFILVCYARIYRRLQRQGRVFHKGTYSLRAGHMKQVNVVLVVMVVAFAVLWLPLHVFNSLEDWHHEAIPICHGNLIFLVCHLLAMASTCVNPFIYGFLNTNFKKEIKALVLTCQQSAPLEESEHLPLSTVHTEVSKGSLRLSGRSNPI
UniProt P10082, residues 31-64: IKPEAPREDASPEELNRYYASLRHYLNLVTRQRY

Results are given in words; binding and its absence hold for the method and conditions named. Some entries that bind do so weakly or less than the wild type.

With “PYY3-36, human (from UniProt P10082 31-64) (peptide)”, the binding entry is “binds”.

Source of the values: US6913892.
